Measured values published in the supplement of paper PMC10849652.
Some of the results follow.

Chains of the proteins cited; added tags and fusions are not shown. Lines headed by an entry give the natural chain unless they say otherwise; changes in a name come on top.
UniProt Q86SQ7: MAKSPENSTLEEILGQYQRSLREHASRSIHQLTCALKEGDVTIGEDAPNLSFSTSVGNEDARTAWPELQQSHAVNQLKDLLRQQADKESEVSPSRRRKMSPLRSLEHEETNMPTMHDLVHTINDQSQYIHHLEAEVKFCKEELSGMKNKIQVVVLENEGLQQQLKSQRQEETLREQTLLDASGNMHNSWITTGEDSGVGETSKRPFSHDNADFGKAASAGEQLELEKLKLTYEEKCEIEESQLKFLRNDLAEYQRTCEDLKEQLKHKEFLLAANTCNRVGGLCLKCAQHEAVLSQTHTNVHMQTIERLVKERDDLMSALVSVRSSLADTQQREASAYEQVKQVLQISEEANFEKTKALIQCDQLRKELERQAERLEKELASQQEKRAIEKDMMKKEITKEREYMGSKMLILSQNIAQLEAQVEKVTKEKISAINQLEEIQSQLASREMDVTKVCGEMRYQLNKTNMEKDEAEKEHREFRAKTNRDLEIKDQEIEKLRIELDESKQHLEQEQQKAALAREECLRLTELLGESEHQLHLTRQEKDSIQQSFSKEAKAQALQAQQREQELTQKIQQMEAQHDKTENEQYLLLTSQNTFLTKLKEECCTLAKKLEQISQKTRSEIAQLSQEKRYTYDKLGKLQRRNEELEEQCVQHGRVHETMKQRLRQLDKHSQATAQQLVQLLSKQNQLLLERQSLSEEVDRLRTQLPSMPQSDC
UniProt P23297: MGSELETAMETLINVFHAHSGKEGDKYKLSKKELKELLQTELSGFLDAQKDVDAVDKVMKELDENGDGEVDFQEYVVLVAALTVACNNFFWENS
UniProt P48443: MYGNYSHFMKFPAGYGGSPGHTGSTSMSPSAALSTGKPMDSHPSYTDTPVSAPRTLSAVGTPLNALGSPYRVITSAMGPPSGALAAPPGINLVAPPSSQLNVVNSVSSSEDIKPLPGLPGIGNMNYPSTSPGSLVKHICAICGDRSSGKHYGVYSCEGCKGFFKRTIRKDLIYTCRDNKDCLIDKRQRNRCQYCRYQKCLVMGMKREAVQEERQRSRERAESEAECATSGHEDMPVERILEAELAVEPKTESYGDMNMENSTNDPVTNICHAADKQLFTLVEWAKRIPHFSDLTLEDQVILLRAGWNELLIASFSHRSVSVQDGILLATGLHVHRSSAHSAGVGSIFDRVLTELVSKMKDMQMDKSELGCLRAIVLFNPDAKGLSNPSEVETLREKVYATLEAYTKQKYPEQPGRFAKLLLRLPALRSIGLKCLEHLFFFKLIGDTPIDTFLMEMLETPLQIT
UniProt Q9UPW6: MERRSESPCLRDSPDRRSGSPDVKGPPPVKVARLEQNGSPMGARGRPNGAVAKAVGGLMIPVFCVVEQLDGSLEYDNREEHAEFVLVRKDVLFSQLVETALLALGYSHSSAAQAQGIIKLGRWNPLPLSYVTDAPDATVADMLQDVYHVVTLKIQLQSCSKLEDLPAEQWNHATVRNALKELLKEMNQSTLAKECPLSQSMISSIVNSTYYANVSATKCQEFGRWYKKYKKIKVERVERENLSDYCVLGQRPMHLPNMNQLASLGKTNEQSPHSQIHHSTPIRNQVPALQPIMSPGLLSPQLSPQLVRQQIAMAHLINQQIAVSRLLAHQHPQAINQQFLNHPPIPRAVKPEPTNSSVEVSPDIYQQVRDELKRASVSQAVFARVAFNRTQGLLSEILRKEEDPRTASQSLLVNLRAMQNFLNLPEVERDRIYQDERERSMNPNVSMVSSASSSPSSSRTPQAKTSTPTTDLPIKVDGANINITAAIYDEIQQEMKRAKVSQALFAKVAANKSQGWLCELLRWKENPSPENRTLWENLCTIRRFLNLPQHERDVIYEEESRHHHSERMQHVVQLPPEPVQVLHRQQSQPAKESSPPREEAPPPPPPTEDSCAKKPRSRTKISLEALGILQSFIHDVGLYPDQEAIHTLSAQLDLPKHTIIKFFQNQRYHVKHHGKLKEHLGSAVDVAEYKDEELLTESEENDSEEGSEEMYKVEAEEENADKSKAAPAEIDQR
UniProt Q92622: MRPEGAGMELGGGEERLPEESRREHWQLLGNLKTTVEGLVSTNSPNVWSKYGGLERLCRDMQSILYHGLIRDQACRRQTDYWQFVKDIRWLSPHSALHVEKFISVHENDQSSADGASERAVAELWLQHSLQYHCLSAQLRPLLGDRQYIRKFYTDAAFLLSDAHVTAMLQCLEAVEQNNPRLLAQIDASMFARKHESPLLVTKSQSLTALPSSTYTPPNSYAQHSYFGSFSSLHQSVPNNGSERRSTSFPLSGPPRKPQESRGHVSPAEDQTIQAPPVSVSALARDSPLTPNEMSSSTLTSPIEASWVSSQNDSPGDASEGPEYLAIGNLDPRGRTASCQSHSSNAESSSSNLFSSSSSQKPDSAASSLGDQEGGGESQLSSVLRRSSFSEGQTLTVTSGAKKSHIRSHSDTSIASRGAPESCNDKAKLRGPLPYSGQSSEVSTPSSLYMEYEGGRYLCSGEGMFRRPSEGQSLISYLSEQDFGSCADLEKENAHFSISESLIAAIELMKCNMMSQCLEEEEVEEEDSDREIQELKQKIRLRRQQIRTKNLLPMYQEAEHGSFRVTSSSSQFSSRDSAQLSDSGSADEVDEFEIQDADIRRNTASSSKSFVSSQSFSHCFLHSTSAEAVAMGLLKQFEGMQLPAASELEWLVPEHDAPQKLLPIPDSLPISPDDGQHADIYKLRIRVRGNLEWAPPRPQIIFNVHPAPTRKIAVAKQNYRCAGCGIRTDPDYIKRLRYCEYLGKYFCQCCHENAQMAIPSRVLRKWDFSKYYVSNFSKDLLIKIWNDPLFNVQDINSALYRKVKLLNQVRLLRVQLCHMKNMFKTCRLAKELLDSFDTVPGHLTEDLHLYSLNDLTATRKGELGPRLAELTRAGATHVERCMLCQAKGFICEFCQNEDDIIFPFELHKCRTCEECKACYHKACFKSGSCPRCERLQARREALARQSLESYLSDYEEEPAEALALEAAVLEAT
UniProt Q9UIL1: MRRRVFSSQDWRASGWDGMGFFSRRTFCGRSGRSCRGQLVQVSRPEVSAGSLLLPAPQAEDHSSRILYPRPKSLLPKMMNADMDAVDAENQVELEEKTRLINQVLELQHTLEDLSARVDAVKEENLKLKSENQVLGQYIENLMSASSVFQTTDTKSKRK
UniProt O75556: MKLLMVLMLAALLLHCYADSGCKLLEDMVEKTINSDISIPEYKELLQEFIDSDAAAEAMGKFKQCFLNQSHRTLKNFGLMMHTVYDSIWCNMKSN
UniProt A6ZKI3: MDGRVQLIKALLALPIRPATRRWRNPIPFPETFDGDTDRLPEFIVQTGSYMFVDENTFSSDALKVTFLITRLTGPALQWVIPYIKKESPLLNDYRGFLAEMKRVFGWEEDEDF
UniProt Q14684: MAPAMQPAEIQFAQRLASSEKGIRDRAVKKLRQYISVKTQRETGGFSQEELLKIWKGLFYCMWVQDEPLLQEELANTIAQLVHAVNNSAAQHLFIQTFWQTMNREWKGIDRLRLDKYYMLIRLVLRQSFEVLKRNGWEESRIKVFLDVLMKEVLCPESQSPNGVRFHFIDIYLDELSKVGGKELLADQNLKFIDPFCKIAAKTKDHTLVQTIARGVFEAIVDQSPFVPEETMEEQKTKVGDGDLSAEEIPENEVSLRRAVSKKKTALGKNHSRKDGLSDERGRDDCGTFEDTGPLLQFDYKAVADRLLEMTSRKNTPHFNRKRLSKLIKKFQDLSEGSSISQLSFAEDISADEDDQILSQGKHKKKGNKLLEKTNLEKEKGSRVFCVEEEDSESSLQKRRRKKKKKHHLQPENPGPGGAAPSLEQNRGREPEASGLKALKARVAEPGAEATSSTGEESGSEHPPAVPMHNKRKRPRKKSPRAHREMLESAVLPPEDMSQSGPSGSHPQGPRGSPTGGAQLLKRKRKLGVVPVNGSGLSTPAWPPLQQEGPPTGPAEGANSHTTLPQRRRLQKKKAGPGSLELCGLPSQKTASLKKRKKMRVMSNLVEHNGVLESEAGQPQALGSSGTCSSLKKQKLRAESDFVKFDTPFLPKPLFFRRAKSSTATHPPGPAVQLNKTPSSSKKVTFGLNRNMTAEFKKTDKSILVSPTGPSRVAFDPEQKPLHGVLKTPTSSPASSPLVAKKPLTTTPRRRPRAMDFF
UniProt P28702: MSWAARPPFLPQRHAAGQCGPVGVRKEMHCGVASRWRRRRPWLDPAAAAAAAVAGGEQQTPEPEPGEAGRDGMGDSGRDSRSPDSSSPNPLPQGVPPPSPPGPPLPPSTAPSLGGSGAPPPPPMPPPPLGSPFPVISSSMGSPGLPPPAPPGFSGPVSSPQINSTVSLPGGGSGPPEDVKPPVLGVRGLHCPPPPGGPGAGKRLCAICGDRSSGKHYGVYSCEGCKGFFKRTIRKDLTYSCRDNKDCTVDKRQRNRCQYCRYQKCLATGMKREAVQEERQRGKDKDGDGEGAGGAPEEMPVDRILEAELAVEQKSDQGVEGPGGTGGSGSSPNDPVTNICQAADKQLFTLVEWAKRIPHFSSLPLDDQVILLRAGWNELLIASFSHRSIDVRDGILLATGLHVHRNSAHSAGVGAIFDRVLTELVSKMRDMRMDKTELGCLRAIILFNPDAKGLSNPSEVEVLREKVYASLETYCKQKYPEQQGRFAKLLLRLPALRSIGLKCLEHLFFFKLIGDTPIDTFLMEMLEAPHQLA
UniProt P26447: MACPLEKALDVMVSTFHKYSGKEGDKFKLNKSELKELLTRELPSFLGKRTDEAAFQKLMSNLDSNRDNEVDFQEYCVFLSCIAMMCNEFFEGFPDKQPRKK
UniProt Q9Y3V2: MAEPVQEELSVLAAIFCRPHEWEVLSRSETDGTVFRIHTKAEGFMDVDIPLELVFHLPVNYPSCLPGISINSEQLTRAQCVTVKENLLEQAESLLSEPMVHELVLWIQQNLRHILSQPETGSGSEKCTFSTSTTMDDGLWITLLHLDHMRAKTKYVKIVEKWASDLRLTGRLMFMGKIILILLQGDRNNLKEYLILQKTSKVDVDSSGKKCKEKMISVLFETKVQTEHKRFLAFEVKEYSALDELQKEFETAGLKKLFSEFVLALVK
UniProt Q9H0E3: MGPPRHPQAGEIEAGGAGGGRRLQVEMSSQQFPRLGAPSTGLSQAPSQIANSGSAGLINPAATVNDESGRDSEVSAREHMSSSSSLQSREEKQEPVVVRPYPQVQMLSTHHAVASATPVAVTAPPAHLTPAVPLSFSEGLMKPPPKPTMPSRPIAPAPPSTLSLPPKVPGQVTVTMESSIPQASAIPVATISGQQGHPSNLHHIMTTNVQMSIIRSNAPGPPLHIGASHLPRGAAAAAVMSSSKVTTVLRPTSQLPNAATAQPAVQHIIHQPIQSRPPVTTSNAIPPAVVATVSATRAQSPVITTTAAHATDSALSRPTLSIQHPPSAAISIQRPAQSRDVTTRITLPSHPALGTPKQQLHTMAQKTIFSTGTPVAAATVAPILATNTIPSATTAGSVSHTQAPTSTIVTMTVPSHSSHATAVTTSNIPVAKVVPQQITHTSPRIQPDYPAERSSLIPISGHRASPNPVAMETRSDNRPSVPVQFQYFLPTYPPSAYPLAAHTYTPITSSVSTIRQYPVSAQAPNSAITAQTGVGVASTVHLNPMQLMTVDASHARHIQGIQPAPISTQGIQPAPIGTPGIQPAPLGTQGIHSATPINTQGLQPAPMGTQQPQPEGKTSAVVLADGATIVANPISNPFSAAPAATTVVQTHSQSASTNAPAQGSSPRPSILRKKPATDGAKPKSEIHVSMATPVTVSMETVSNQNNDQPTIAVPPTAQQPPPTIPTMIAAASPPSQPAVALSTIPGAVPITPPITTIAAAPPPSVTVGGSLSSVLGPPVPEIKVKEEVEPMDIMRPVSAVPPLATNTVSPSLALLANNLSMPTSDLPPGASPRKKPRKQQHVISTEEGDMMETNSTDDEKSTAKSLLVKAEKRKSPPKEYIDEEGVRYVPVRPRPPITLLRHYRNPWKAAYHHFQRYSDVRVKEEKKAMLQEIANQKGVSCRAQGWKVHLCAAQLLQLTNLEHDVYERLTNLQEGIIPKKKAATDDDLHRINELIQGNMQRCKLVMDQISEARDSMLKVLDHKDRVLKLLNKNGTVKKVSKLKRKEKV
UniProt Q7L099: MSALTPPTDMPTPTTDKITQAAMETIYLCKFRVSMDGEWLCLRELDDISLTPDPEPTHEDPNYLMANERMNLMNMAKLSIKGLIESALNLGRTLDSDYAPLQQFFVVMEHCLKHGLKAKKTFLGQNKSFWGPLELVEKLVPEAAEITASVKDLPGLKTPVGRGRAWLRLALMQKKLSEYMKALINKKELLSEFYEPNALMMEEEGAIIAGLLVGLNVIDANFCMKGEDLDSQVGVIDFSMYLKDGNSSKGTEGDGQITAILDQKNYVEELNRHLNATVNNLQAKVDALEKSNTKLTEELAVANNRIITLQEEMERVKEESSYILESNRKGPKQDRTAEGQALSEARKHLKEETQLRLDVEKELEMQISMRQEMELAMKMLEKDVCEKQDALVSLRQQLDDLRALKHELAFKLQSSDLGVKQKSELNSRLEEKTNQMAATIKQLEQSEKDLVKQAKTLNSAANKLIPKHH

Assays:
Test in all cases: log2 fold change, soluble protein after heating vs DMSO (PISA); higher = thermal stabilisation; K562 cells, 10 uM, 30 min; active = over 0.2 and 3.5 SD of the protein, either way, in both replicates (recomputed)
[1] = compound: Cc1cccc(CC(=O)N2CCc3c2ccc(-c2cn(C)c4ncnc(N)c24)c3F)n1
Method in brief: (§1)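 Thermal stability values are relative to control samples and come from duplicates. They are expressed as log2 fold changes. For measurement, K562 cells (2×10^6 cells/mL) received 10 μM compound for 30 min, and aliquots were heated for 3 min over 48°C-58°C, pooled, and extracted at 4°C in PBS with 0.5% NP-40. Soluble protein, the supernatant after 21,000xg for 90 min, was quantified by TMTpro 16plex LC-MS/MS with equalised channel sums.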

dasatinib = compound: Cc1nc(Nc2ncc(C(=O)Nc3c(C)cccc3Cl)s2)cc(N2CCN(CCO)CC2)n1 [dasatinib]
Method in brief: as §1

tipifarnib = compound: Cn1cncc1[C@@](N)(c1ccc(Cl)cc1)c1ccc2c(c1)c(-c1cccc(Cl)c1)cc(=O)n2C [tipifarnib]
Method in brief: as §1

[2] = compound: NC(=O)Nc1cc(-c2cccc(F)c2)sc1C(=O)N[C@H]1CCCNC1
Method in brief: as §1

[3] = compound: NC(=O)c1cnc(N[C@@H]2CCCC[C@@H]2N)nc1Nc1cccc(-n2nccn2)c1
Method in brief: as §1

[4] = compound: NCC(=O)Nc1ccc(-n2nc(C(F)(F)F)cc2-c2ccc3c(ccc4ccccc43)c2)cc1
Method in brief: as §1

entinostat = compound: Nc1ccccc1NC(=O)c1ccc(CNC(=O)OCc2cccnc2)cc1 [entinostat]
Method in brief: as §1

vorinostat = compound: O=C(CCCCCCC(=O)Nc1ccccc1)NO [vorinostat]
Method in brief: as §1

citarinostat = compound: O=C(CCCCCCNC(=O)c1cnc(N(c2ccccc2)c2ccccc2Cl)nc1)NO [citarinostat]
Method in brief: as §1

[5] = compound: c1cc(OCCN2CCCCC2)cc(-c2n[nH]c3ccc(-c4nnc[nH]4)cc23)c1
Method in brief: as §1

bafetinib = compound: Cc1ccc(NC(=O)c2ccc(CN3CC[C@H](N(C)C)C3)c(C(F)(F)F)c2)cc1Nc1nccc(-c2cncnc2)n1 [bafetinib]
Method in brief: as §1

nilotinib = compound: Cc1cn(-c2cc(NC(=O)c3ccc(C)c(Nc4nccc(-c5cccnc5)n4)c3)cc(C(F)(F)F)c2)cn1 [nilotinib]
Method in brief: as §1

[6] = compound: Cc1nc(Nc2n[nH]c3c2CN(C(=O)N[C@H](CN(C)C)c2ccccc2)C3(C)C)c2sccc2n1
Method in brief: as §1

[7] = compound: Cc1ncc(-c2ccnc(Nc3ccc(S(C)(=O)=O)cc3)n2)n1C(C)C
Method in brief: as §1

[8] = compound: Cn1cc(-c2ccc3nnc(C(F)(F)c4ccc5ncccc5c4)n3n2)cn1
Method in brief: as §1

[9] = compound: O=C1NC(=O)C(c2cnc3ccccn23)=C1c1cn2c3c(cc(F)cc13)CN(C(=O)N1CCCCC1)CC2
Method in brief: as §1

[10] = compound: Cn1cc(-c2ccc3c(c2)CCN3C(=O)Cc2cccc(C(F)(F)F)c2)c2c(N)ncnc21
Method in brief: as §1

mubritinib = compound: FC(F)(F)c1ccc(/C=C/c2nc(COc3ccc(CCCCn4ccnn4)cc3)co2)cc1 [mubritinib]
Method in brief: as §1

[11] = compound: NC1(c2ccc(-c3nc4ccn5c(=O)[nH]nc5c4cc3-c3ccccc3)cc2)CCC1
Method in brief: as §1

silmitasertib = compound: O=C(O)c1ccc2c(c1)nc(Nc1cccc(Cl)c1)c1ccncc12 [silmitasertib]
Method in brief: as §1

Measured: log2 fold change

SDCCAG8 (UniProt Q86SQ7)
inactive: [1] 0.053 | dasatinib 0.068 | tipifarnib 0.052 | [2] 0.108 | [3] 0.004 | [4] -0.185 | entinostat 0.138 | vorinostat 0.233 | citarinostat 0.007 | [5] -0.12

S100A1 (UniProt P23297)
inactive: bafetinib 0.012 | nilotinib -0.063 | [6] 0.052 | [7] 0.033 | [8] 0.047 | [2] 0.122 | entinostat -0.102 | [9] -0.094

RXRG (UniProt P48443)
inactive: [1] 0.179 | [8] -0.005 | vorinostat -0.028

SATB2 (UniProt Q9UPW6)
inactive: [1] 0.05 | vorinostat 0.047

SCAI isoform 2 (UniProt Q8N9R8)
inactive: dasatinib 0.142 | [10] -0.038 | [8] -0.001 | [3] 0.036 | [4] 0.06 | [9] -0.212

SAYSD1 (UniProt Q9NPB0)
inactive: bafetinib 0.15 | [10] 0.14 | tipifarnib -0.007 | mubritinib -0.033 | [2] -0.058 | [11] 0.368 | entinostat 0.139 | citarinostat 0.08 | silmitasertib 0.049 | [9] 0.047 | [5] -0.05

RUBCN (UniProt Q92622)
inactive: [8] -0.093 | [4] -0.208

Copied from the listing (six entries):
SDCCAG8 (UniProt Q86SQ7)
inactive: [1] 0.053 | dasatinib 0.068 | tipifarnib 0.052 | [2] 0.108 | [3] 0.004 | [4] -0.185 | entinostat 0.138 | vorinostat 0.233 | citarinostat 0.007 | [5] -0.12

S100A1 (UniProt P23297)
inactive: bafetinib 0.012 | nilotinib -0.063 | [6] 0.052 | [7] 0.033 | [8] 0.047 | [2] 0.122 | entinostat -0.102 | [9] -0.094

RXRG (UniProt P48443)
inactive: [1] 0.179 | [8] -0.005 | vorinostat -0.028

SATB2 (UniProt Q9UPW6)
inactive: [1] 0.05 | vorinostat 0.047

SCAI isoform 2 (UniProt Q8N9R8)
inactive: dasatinib 0.142 | [10] -0.038 | [8] -0.001 | [3] 0.036 | [4] 0.06 | [9] -0.212

SAYSD1 (UniProt Q9NPB0)
inactive: bafetinib 0.15 | [10] 0.14 | tipifarnib -0.007 | mubritinib -0.033 | [2] -0.058 | [11] 0.368 | entinostat 0.139 | citarinostat 0.08 | silmitasertib 0.049 | [9] 0.047 | [5] -0.05

The list goes on:

SCOC (UniProt Q9UIL1)
inactive: [8] 0.106

SAFB2 (UniProt K7EQU4)
inactive: bafetinib -0.053 | nilotinib 0.155 | [6] 0.162 | [7] -0.113 | [9] 0.007

SCRIB isoform 3 (UniProt Q14160)
inactive: [1] -0.009 | dasatinib -0.022 | [10] -0.042 | [8] -0.23 | mubritinib -0.058 | [11] 0.158 | vorinostat 0.005 | silmitasertib 0.372

SCAF1 (UniProt Q9H7N4)
inactive: [2] -0.147 | entinostat -0.273

SCN4A (UniProt P35499)
inactive: dasatinib 0.01 | mubritinib 0.064 | [3] -0.271 | [11] 0.098 | silmitasertib 0.039

RTN4, A0A0U1RQR6
inactive: [9] -0.19

RTN4 isoform 5 (UniProt Q9NQC3)
inactive: [1] -0.014 | nilotinib 0.227 | [6] 0.089 | dasatinib -0.256 | [7] 0.061 | [10] 0.002 | [8] 0.251 | tipifarnib 0.092 | [3] -0.022 | [4] -0.052 | vorinostat -0.079 | citarinostat -0.028 | [9] -0.117 | [5] 0.005

RXYLT1 (UniProt Q9Y2B1)
inactive: nilotinib 0.102 | [6] -0.1 | [7] 0.076 | tipifarnib -0.361

SCGB2A1 (UniProt O75556)
inactive: bafetinib 1.22 | nilotinib -0.106 | [6] 0.019 | [7] 0.745 | mubritinib 0.041 | [11] 0.07 | silmitasertib 0.548

RTL8C (UniProt A6ZKI3)
inactive: [1] 0.125 | dasatinib -0.166 | [8] -0.144 | tipifarnib 0.109 | [4] -0.014 | vorinostat 0.103 | citarinostat 0.034 | [9] 0.066 | [5] -0.076

RRP1B (UniProt Q14684)
inactive: [1] -0.043 | dasatinib 0.023 | mubritinib 0.033 | [2] 0.003 | [11] -0.06 | [4] 0.207 | entinostat -0.12 | vorinostat -0.114 | citarinostat 0.033 | silmitasertib 0.118 | [9] 0.304 | [5] 0.062

RXRB isoform 3 (UniProt P28702)
inactive: bafetinib -0.263 | [2] -0.167 | entinostat -0.014 | [9] -0.208

SBSN (UniProt Q6UWP8)
inactive: nilotinib 0.031 | [6] -0.018 | [7] 0.113 | mubritinib -0.495 | [3] 0.541 | [11] 0.152 | citarinostat -0.288 | silmitasertib 0.226 | [5] 0.154

S100A4 (UniProt P26447)
inactive: nilotinib 0.08 | [6] -0.023 | [7] 0.073 | [8] -0.057 | tipifarnib 0.013 | [3] 0.156 | citarinostat 0.039 | [5] -0.142

SEC14L1 isoform 2 (UniProt Q92503)
inactive: [1] -0.127 | dasatinib -0.018 | [10] -0.076 | [2] -0.025 | [4] 0.081 | entinostat -0.163 | vorinostat -0.015 | citarinostat -0.214 | [9] -0.07 | [5] -0.191

RWDD3 (UniProt Q9Y3V2)
inactive: [2] -0.075 | entinostat 0.005

SBF2 (UniProt Q86WG5)
inactive: [1] -0.024 | dasatinib 0.033 | [8] -0.013 | vorinostat 0.08 | [9] -0.07

SDC3 (UniProt O75056)
inactive: [1] 0.419 | nilotinib -0.004 | [6] 0.07 | dasatinib 0.073 | [7] -0.036 | [10] -0.019 | [2] 0.044 | [3] -0.016 | [4] 0.026 | entinostat 0.035 | vorinostat 0.211 | citarinostat 0.354 | [9] 0.09 | [5] 0.174

SAP130 isoform 3 (UniProt Q9H0E3)
inactive: [1] -0.12 | [10] 0.086 | [8] 0.001 | [3] -0.077 | [4] -0.104 | vorinostat 0.058

SAMD4A (UniProt Q9UPU9)
inactive: dasatinib 0.034 | [9] -0.216

RSL24D1 (UniProt Q9UHA3)
inactive: bafetinib 0.176 | nilotinib -0.029 | [6] 0.046 | [7] 0.044 | [8] -0.345 | mubritinib -0.085 | [2] 0.063 | [3] 0.112 | [11] 0.377 | [4] 0.197 | entinostat -0.126 | citarinostat -0.085 | silmitasertib 0.274 | [9] 0.248 | [5] -0.339

RWDD2B (UniProt P57060)
inactive: [1] 0.012 | dasatinib 0.096 | [8] -0.17 | tipifarnib 0.087 | [2] -0.141 | [3] 0.257 | [4] -0.182 | entinostat 0.003 | vorinostat -0.226 | citarinostat 0.077 | [5] -0.053

RUFY3 isoform 3 (UniProt Q7L099)
inactive: [1] -0.018 | nilotinib -0.16 | [6] 0.045 | dasatinib -0.271 | [7] 0.052 | [10] 0.024 | [8] 0.134 | tipifarnib -0.116 | mubritinib 0.043 | [2] -0.032 | [3] -0.022 | [11] -0.05 | [4] -0.014 | entinostat 0.143 | vorinostat 0.071 | citarinostat 0.089 | silmitasertib 0.1 | [5] 0.013
